In publication PMC11111408, “Concurrent inhibition of oncogenic and wild-type RAS-GTP for cancer therapy” (Nature, 2024):
This continues a long series; more values of the same kind are listed elsewhere.

Test system: PRISM DNA-barcoded human tumour cell lines
Test: PRISM pooled cell viability assay;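 also: 8 threefold dilutions from 10 µM with 5 days of exposure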
Type: cell-based
Set-up: Area under the curve (AUC): scale not given here
Description: Cells were then lysed in TCL mRNA lysis buffer, and then PCR with reverse transcription was performed. Detection of the barcodes and univariate and multivariate analysis was then performed as previously described. Data analysis is described in the Supplementary Methods. Up-to-date code for our analysis is at the github link: https://github.com/cmap/dockerized_mts.
For every gene with non-silent mutations in at least four cell-lines, we compared the AUC values between cells with and without those mutations using a t-test. This analysis was carried out for: (i) the full dataset; (ii) excluding cell lines with non-silent KRAS mutations; and (iii) excluding cell lines that have either KRAS or NRAS non-silent mutations.

CCn1c(-c2cc(N3CCN(C4CC4)CC3)cnc2[C@H](C)OC)c2c3cc(ccc31)-c1csc(n1)C[C@H](NC(=O)[C@H]1[C@@H]3COC[C@@H]31)C(=O)N1CCC[C@H](N1)C(=O)OCC(C)(C)C2 [RMC-7977]
Area under the curve (AUC) (CAL51_BREAST): 0.7618
PRISM AUC (CAL51_BREAST, KRAS WT): 0.8348
Area under the curve (AUC) (CAL54_KIDNEY): 1
PRISM AUC (CAL54_KIDNEY, KRAS WT): 0.923
Area under the curve (AUC) (CAL62_THYROID): 0.8444
Area under the curve (AUC) (CAL72_BONE): 0.8606
Area under the curve (AUC) (CAL78_BONE): 0.9047
Area under the curve (AUC) (CAL120_BREAST): 0.7959
PRISM AUC (CAL120_BREAST, KRAS WT): 0.7786
Area under the curve (AUC) (CAL148_BREAST): 1
PRISM AUC (CAL148_BREAST, KRAS WT): 0.8804
Area under the curve (AUC) (CALU1_LUNG): 0.5912
Area under the curve (AUC) (CALU6_LUNG): 0.6889
PRISM AUC (CALU6_LUNG, KRAS MUT): 0.3828
Area under the curve (AUC) (CAMA1_BREAST): 1
PRISM AUC (CAOV3_OVARY, KRAS WT): 0.5307
PRISM AUC (CAS1_CENTRAL_NERVOUS_SYSTEM, KRAS WT): 0.789
PRISM AUC (CCFSTTG1_CENTRAL_NERVOUS_SYSTEM, KRAS WT): 0.7928
PRISM AUC (CCK81_LARGE_INTESTINE, KRAS WT): 0.7557
PRISM AUC (CH157MN_CENTRAL_NERVOUS_SYSTEM, KRAS WT): 0.4312
PRISM AUC (CHAGOK1_LUNG, KRAS WT): 0.3799
PRISM AUC (CI1_HAEMATOPOIETIC_AND_LYMPHOID_TISSUE, KRAS WT): 0.9545
PRISM AUC (CJM_SKIN, KRAS WT): 0.3707
PRISM AUC (CL11_LARGE_INTESTINE, KRAS MUT): 0.3351
PRISM AUC (CL34_LARGE_INTESTINE, KRAS WT): 1
PRISM AUC (CMLT1_HAEMATOPOIETIC_AND_LYMPHOID_TISSUE, KRAS WT): 0.3476
PRISM AUC (COLO320_LARGE_INTESTINE, KRAS WT): 0.7893
PRISM AUC (COLO679_SKIN, KRAS WT): 0.8322
PRISM AUC (COLO680N_OESOPHAGUS, KRAS WT): 0.5372
PRISM AUC (COLO741_SKIN, KRAS WT): 1
PRISM AUC (COLO783_SKIN, KRAS WT): 0.781
PRISM AUC (COLO792_SKIN, KRAS WT): 0.4587
PRISM AUC (COLO800_SKIN, KRAS WT): 0.7375
PRISM AUC (CORL88_LUNG, KRAS WT): 0.4616
PRISM AUC (CORL279_LUNG, KRAS WT): 0.8633
PRISM AUC (COV318_OVARY, KRAS WT): 0.9245
PRISM AUC (COV362_OVARY, KRAS WT): 0.6165
PRISM AUC (COV434_OVARY, KRAS WT): 0.9271
PRISM AUC (COV644_OVARY, KRAS WT): 0.6171
PRISM AUC (CW2_LARGE_INTESTINE, KRAS MUT): 0.7877
PRISM AUC (DAOY_CENTRAL_NERVOUS_SYSTEM, KRAS WT): 0.5911
PRISM AUC (DBTRG05MG_CENTRAL_NERVOUS_SYSTEM, KRAS WT): 0.9778
PRISM AUC (DEL_HAEMATOPOIETIC_AND_LYMPHOID_TISSUE, KRAS WT): 0.7498
PRISM AUC (DETROIT562_UPPER_AERODIGESTIVE_TRACT, KRAS WT): 0.2977
PRISM AUC (DKMG_CENTRAL_NERVOUS_SYSTEM, KRAS WT): 0.9016
PRISM AUC (DMS53_LUNG, KRAS WT): 0.8431
PRISM AUC (DMS273_LUNG, KRAS WT): 0.8256
PRISM AUC (DOHH2_HAEMATOPOIETIC_AND_LYMPHOID_TISSUE, KRAS WT): 0.6063
PRISM AUC (DU145_PROSTATE, KRAS WT): 0.668
PRISM AUC (EB1_HAEMATOPOIETIC_AND_LYMPHOID_TISSUE, KRAS WT): 0.8935
PRISM AUC (EBC1_LUNG, KRAS WT): 0.2644
PRISM AUC (ECGI10_OESOPHAGUS, KRAS WT): 0.3668
PRISM AUC (EFE184_ENDOMETRIUM, KRAS WT): 0.6221
PRISM AUC (EFM19_BREAST, KRAS WT): 1
PRISM AUC (EFM192A_BREAST, KRAS WT): 0.9097
PRISM AUC (EFO21_OVARY, KRAS WT): 0.6828
PRISM AUC (EFO27_OVARY, KRAS WT): 0.6261
PRISM AUC (EKVX_LUNG, KRAS WT): 0.4183
PRISM AUC (EOL1_HAEMATOPOIETIC_AND_LYMPHOID_TISSUE, KRAS WT): 0.2206
PRISM AUC (ES2_OVARY, KRAS WT): 0.8337
PRISM AUC (ESS1_ENDOMETRIUM, KRAS WT): 0.6047
PRISM AUC (EW8_BONE, KRAS WT): 0.8525
PRISM AUC (EWS502_BONE, KRAS WT): 0.6179
PRISM AUC (FADU_UPPER_AERODIGESTIVE_TRACT, KRAS WT): 0.4703
PRISM AUC (FTC133_THYROID, KRAS WT): 0.5606
PRISM AUC (FTC238_THYROID, KRAS WT): 0.9927
PRISM AUC (G292CLONEA141B1_BONE, KRAS WT): 0.598
PRISM AUC (G361_SKIN, KRAS WT): 0.8708
PRISM AUC (G401_SOFT_TISSUE, KRAS WT): 0.7823
PRISM AUC (G402_SOFT_TISSUE, KRAS WT): 0.7763
PRISM AUC (GAMG_CENTRAL_NERVOUS_SYSTEM, KRAS WT): 0.6238
Area under the curve (AUC) (GCIY_STOMACH): 0.7784
PRISM AUC (GCIY_STOMACH, KRAS WT): 0.4885
Area under the curve (AUC) (GCT27_TESTIS): 0.6893
Area under the curve (AUC) (GCT_SOFT_TISSUE): 0.8913
PRISM AUC (GCT_SOFT_TISSUE, KRAS WT): 0.9917
Area under the curve (AUC) (GI1_CENTRAL_NERVOUS_SYSTEM): 0.71
PRISM AUC (GI1_CENTRAL_NERVOUS_SYSTEM, KRAS WT): 0.5906
Area under the curve (AUC) (GIMEN_AUTONOMIC_GANGLIA): 0.7996
Area under the curve (AUC) (GOS3_CENTRAL_NERVOUS_SYSTEM): 0.7797
PRISM AUC (GOS3_CENTRAL_NERVOUS_SYSTEM, KRAS WT): 0.6594
Area under the curve (AUC) (GP2D_LARGE_INTESTINE): 0.6618
Area under the curve (AUC) (GP5D_LARGE_INTESTINE): 0.6949
Area under the curve (AUC) (GRANTA519_HAEMATOPOIETIC_AND_LYMPHOID_TISSUE): 0.8485
PRISM AUC (GRANTA519_HAEMATOPOIETIC_AND_LYMPHOID_TISSUE, KRAS WT): 0.7936
Area under the curve (AUC) (GSS_STOMACH): 0.6723
PRISM AUC (GSS_STOMACH, KRAS WT): 0.6501
Area under the curve (AUC) (GSU_STOMACH): 0.3277
Area under the curve (AUC) (H4_CENTRAL_NERVOUS_SYSTEM): 0.8134
PRISM AUC (H4_CENTRAL_NERVOUS_SYSTEM, KRAS WT): 0.7582
Area under the curve (AUC) (H103_UPPER_AERODIGESTIVE_TRACT): 0.579
Area under the curve (AUC) (H157_UPPER_AERODIGESTIVE_TRACT): 0.5372
Area under the curve (AUC) (H357_UPPER_AERODIGESTIVE_TRACT): 0.4268
Area under the curve (AUC) (H376_UPPER_AERODIGESTIVE_TRACT): 0.5899
Area under the curve (AUC) (H413_UPPER_AERODIGESTIVE_TRACT): 0.5897
Area under the curve (AUC) (HA1E_KIDNEY): 0.832
Area under the curve (AUC) (HAC2_OVARY): 0.6861
Area under the curve (AUC) (HARA_LUNG): 0.5733
PRISM AUC (HARA_LUNG, KRAS WT): 0.5091
Area under the curve (AUC) (HCA1_CERVIX): 0.7682
Area under the curve (AUC) (HCC15_LUNG): 0.7361
PRISM AUC (HCC15_LUNG, KRAS WT): 0.5149
Area under the curve (AUC) (HCC33_LUNG): 1
Area under the curve (AUC) (HCC38_BREAST): 0.8353
PRISM AUC (HCC38_BREAST, KRAS WT): 0.8722
Area under the curve (AUC) (HCC44_LUNG): 0.5509
Area under the curve (AUC) (HCC56_LARGE_INTESTINE): 0.3355
Area under the curve (AUC) (HCC78_LUNG): 0.6092
PRISM AUC (HCC78_LUNG, KRAS WT): 0.501
Area under the curve (AUC) (HCC95_LUNG): 0.5848
PRISM AUC (HCC95_LUNG, KRAS WT): 0.339
Area under the curve (AUC) (HCC515_LUNG): 0.9075
Area under the curve (AUC) (HCC827_LUNG): 0.6413
PRISM AUC (HCC827_LUNG, KRAS WT): 0.517
Area under the curve (AUC) (HCC1143_BREAST): 0.6464
PRISM AUC (HCC1143_BREAST, KRAS WT): 0.393
Area under the curve (AUC) (HCC1195_LUNG): 0.5883
PRISM AUC (HCC1195_LUNG, KRAS WT): 0.6546
